Measurements: the supplement of paper PMC11732987, “Enantioselective OTUD7B fragment discovery through chemoproteomics screening and high-throughput optimisation” (Communications Chemistry, 2025)
The list shows a part of the results. The data scatter; read single values as rough.

Chains of the proteins cited; added tags and fusions are not shown. Lines headed by an entry give the natural chain unless they say otherwise; changes in a name come on top. Residues count along the entry.
UniProt Q5VYS8: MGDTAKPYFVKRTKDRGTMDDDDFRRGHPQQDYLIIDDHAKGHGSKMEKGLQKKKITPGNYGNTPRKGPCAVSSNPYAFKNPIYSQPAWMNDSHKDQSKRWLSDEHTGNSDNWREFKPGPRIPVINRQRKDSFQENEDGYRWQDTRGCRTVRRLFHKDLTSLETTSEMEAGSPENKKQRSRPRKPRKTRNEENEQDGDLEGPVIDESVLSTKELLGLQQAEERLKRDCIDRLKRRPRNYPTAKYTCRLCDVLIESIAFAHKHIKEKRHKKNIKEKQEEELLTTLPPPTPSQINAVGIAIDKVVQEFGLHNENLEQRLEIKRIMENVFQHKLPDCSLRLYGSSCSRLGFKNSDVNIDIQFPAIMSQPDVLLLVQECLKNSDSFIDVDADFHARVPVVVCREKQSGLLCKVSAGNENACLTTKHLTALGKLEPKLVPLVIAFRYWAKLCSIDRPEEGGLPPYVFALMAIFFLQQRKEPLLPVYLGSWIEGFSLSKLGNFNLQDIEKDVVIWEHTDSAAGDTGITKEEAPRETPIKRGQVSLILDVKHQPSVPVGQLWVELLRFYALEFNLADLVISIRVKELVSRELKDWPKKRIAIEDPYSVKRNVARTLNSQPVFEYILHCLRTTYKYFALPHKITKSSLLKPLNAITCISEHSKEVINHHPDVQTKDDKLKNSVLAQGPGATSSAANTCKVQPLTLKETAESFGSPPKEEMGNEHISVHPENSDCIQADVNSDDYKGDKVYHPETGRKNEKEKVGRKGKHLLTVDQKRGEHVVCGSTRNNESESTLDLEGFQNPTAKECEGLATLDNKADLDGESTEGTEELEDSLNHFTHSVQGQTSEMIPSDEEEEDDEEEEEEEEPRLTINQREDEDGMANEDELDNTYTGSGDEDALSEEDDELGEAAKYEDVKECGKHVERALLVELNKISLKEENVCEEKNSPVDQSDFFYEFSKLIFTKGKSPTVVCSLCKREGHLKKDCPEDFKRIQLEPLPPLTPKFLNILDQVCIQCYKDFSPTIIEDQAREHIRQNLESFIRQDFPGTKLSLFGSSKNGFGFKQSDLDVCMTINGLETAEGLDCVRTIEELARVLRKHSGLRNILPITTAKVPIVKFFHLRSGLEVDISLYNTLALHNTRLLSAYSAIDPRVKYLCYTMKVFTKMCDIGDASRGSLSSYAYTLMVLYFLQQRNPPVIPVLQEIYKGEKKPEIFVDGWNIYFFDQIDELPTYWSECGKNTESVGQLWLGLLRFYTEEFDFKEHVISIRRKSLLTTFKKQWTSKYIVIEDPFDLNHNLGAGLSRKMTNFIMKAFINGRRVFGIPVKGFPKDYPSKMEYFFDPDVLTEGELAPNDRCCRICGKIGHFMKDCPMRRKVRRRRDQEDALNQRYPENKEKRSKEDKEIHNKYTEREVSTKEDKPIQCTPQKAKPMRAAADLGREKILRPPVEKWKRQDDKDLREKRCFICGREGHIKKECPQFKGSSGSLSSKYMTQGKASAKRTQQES
UniProt Q9BSJ2, whole entry, looked up: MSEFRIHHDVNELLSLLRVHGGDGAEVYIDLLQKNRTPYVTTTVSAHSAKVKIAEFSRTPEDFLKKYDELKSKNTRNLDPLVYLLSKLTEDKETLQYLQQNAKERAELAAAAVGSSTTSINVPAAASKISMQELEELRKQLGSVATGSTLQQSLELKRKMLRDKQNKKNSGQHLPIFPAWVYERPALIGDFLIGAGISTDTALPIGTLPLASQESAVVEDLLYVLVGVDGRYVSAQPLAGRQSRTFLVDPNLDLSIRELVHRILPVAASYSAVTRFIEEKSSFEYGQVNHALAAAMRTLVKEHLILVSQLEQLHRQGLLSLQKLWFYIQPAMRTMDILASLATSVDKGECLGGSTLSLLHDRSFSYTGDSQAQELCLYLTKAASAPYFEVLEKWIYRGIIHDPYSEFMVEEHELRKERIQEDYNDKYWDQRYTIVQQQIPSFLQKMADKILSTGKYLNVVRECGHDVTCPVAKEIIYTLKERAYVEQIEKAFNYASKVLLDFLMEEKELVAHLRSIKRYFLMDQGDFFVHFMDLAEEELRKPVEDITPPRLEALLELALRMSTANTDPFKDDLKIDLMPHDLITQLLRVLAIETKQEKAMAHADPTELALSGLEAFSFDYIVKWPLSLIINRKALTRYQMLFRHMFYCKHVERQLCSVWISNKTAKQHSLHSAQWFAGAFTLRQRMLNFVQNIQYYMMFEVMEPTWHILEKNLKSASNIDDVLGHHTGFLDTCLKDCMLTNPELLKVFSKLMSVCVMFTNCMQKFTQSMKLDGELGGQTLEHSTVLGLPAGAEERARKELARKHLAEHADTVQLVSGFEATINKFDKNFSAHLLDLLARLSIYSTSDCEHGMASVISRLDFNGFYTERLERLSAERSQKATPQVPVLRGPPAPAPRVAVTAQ
UniProt Q5R3I4: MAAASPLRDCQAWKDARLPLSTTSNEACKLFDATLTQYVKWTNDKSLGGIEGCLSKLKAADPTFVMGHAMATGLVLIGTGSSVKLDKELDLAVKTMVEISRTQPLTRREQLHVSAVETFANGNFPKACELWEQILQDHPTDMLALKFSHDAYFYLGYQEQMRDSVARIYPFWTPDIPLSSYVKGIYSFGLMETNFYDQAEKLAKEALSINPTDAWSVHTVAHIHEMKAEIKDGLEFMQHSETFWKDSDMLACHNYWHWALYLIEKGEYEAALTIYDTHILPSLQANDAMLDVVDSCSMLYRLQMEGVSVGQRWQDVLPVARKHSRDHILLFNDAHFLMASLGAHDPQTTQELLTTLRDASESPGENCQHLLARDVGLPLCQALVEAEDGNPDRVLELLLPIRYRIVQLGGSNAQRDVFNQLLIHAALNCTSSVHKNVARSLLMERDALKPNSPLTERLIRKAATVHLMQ
UniProt Q8IWV7, 992-1016: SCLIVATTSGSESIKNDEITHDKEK
UniProt P43897: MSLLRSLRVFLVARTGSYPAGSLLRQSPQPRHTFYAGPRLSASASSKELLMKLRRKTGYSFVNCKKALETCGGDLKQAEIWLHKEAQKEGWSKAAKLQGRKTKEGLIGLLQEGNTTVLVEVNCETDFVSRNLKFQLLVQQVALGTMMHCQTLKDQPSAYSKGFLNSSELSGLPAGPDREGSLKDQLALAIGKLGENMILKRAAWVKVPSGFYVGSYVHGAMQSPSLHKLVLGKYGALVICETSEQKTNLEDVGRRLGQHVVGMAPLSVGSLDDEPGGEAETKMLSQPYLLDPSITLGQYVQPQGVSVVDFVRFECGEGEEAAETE
UniProt Q9UNY4: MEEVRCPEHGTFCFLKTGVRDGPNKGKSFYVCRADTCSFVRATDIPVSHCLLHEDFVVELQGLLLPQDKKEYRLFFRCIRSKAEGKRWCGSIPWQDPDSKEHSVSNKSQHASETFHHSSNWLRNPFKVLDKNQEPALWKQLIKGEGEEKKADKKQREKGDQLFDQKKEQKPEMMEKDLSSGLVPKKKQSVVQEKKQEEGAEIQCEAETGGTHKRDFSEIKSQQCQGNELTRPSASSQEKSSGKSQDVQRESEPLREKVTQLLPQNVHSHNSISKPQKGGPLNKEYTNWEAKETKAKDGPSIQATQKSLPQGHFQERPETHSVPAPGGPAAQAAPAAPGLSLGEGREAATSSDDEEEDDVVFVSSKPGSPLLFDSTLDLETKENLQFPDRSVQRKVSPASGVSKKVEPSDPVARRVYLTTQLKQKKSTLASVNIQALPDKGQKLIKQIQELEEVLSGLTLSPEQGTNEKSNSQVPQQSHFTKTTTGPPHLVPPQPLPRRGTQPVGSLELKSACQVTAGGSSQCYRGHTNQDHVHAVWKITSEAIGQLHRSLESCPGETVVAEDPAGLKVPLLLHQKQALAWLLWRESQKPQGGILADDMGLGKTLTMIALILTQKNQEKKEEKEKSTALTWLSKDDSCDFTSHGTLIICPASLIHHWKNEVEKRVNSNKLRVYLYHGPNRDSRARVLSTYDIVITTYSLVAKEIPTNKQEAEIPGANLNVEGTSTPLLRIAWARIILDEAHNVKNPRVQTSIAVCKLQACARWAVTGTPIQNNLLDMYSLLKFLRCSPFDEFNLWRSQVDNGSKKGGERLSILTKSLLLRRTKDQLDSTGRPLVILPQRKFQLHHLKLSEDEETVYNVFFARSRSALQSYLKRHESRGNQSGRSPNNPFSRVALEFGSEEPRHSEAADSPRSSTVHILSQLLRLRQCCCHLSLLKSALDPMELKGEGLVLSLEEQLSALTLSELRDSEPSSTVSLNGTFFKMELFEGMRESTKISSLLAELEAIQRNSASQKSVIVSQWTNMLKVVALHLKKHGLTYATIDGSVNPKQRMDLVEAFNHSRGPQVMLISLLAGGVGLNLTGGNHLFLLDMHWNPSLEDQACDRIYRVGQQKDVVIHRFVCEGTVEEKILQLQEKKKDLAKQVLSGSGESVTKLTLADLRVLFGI
UniProt Q99598: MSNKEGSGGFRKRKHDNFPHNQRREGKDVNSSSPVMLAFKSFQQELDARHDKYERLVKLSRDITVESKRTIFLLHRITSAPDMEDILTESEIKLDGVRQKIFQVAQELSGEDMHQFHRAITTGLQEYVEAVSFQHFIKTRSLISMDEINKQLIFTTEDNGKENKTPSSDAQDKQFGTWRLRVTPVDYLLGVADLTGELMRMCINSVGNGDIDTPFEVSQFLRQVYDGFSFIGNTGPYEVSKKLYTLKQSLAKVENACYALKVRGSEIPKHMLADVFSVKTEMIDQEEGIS
UniProt Q6PKC3: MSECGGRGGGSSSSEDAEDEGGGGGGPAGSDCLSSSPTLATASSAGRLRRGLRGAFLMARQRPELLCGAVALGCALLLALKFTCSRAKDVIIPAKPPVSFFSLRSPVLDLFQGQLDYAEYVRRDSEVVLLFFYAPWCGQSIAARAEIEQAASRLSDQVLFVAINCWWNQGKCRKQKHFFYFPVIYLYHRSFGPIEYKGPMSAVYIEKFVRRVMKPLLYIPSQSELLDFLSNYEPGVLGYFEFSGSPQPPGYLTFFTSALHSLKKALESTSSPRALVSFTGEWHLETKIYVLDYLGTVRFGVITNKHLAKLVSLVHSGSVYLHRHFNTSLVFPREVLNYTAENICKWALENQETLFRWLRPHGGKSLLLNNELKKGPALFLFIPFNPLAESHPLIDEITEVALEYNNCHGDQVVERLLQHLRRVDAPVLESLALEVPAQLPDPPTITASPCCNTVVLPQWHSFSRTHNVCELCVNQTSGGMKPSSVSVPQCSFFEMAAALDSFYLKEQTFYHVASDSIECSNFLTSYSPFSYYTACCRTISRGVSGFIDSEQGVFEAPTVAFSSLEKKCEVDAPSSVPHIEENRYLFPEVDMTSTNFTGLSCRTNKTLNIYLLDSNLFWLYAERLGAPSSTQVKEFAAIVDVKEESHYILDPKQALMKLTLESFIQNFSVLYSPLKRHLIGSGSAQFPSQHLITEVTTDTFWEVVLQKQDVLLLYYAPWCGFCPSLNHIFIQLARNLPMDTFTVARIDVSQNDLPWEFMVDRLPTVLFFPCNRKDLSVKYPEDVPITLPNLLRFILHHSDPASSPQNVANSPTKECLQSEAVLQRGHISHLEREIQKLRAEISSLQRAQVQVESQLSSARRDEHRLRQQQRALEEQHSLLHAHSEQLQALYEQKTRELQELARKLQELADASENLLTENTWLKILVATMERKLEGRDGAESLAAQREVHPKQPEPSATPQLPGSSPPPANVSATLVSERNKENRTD
UniProt O14530: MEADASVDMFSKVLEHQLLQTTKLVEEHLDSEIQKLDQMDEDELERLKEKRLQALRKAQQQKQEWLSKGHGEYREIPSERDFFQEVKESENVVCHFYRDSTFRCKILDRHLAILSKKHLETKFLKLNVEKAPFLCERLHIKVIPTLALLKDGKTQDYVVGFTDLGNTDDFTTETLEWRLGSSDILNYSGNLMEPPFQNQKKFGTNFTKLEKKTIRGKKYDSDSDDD
UniProt P68371, whole entry, looked up: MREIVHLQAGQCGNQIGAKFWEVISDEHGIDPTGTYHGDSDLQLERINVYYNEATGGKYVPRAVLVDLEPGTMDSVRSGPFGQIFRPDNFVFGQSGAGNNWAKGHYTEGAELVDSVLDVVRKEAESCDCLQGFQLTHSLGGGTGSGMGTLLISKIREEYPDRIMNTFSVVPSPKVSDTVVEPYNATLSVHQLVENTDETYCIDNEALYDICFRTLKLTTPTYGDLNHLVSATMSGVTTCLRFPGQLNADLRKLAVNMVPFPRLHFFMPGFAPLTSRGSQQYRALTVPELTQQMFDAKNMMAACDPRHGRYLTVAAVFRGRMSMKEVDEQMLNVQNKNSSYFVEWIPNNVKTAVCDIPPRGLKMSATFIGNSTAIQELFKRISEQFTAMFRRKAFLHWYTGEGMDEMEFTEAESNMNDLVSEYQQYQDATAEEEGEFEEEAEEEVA
UniProt Q5BVD1: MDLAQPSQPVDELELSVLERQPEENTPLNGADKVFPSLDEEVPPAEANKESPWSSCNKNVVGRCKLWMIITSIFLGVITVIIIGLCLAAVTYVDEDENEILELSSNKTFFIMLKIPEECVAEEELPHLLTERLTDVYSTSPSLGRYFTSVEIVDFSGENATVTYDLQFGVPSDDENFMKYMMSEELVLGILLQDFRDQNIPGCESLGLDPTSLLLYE

compound: ClCC(=O)N[C@@H]1CCCc2ccccc12; assay: log2 mean competition ratio of IA-DTB cysteine labelling (DMSO/compound) (log2 ratio); higher = stronger cysteine engagement by compound; conditions: 50 µM; treatment time: 4 h; cell line lysate: HEK293T
Description: (§1)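 IA-DTB competitive cysteine chemoproteomics in HEK293T RIPA lysate. Lysates were treated with compound 29 or 30 at 50 or 200 µM for 4 h, then IA-DTB (500 µM, 1 h), trypsin-digested, NeutrAvidin-enriched and analysed by diaPASEF. Competition ratio = intensity DMSO / intensity compound (n=4 treated, n=64 DMSO); binding: mean log2 CR ≥ 1 and p ≤ 0.05 plus QC filters. Target is the cysteine site.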

Target	log2 mean competition ratio
TUT4 C64 (UniProt Q5TAX3)	-0.178
UBR4 C2554 (UniProt Q5T4S7)	0.204
TTC37 C305 (UniProt Q6PGP7)	0.323
TRRAP C420 (UniProt Q9Y4A5)	0.37
TUT7 C775 (UniProt Q5VYS8)	-0.0261
TTC31 C197	-0.245
TUBGCP2 C737 (UniProt Q9BSJ2)	0.36
TTC38 C53 (UniProt Q5R3I4)	-0.000362
TRMT2A C365 (UniProt Q8IZ69)	0.117
UBR1 C993 (UniProt Q8IWV7)	-0.0587
TRRAP C3758 (UniProt Q9Y4A5)	0.0255
TRRAP C2241 (UniProt Q9Y4A5)	-0.111
UBE3B C75 (UniProt Q7Z3V4)	0.201
UBE2O C1288	-0.234
TSFM C71 (UniProt P43897)	-0.383
UBR4 C3279 (UniProt Q5T4S7)	0.0838
TTF2 C1118 (UniProt Q9UNY4)	0.00497
TSNAX C257 (UniProt Q99598)	0.0938
TRRAP C1408 (UniProt Q9Y4A5)	0.128

Target	log2 mean competition ratio
TUT7 C343 (UniProt Q5VYS8)	0.042
TROAP C647 (UniProt Q12815)	-0.281
UBA1 C179 (UniProt P22314)	-0.16
UBR4 C3414 (UniProt Q5T4S7)	0.134
TXNDC11 C815 (UniProt Q6PKC3)	0.00262
UBN2 C614 (UniProt Q6ZU65)	0.238
TTC21B C187 (UniProt Q7Z4L5)	-0.148
UBN1 C548 (UniProt Q9NPG3)	-0.0428
U2AF1 C163 (UniProt Q01081)	-0.105
TXNDC9 C135 (UniProt O14530)	-0.072
TRRAP C3098 (UniProt Q9Y4A5)	0.317
UBR2 C19 (UniProt Q8IWV8)	-0.212
UBAP2 C104	-0.156
UBR4 C3392 (UniProt Q5T4S7)	-0.461
TUBB4B C303 (UniProt P68371)	-0.026
TTMP C119 (UniProt Q5BVD1)	0.0126
TXLNG C101 (UniProt Q9NUQ3)	0.0129
UBE4B C829 (UniProt O95155)	0.0806
UBE4B C113 (UniProt O95155)	-0.178

same assay, conditions: 200 µM; treatment time: 4 h; cell line lysate: HEK293T

Target	log2 mean competition ratio
TUT4 C64 (UniProt Q5TAX3)	0.09
UBR4 C2554 (UniProt Q5T4S7)	0.103
TTC37 C305 (UniProt Q6PGP7)	-0.0727
TRRAP C420 (UniProt Q9Y4A5)	0.0482
TUT7 C775 (UniProt Q5VYS8)	-0.0906
TTC31 C197	-0.365
TUBGCP2 C737 (UniProt Q9BSJ2)	-0.0673
TTC38 C53 (UniProt Q5R3I4)	-0.24
TRMT2A C365 (UniProt Q8IZ69)	0.204
UBR1 C993 (UniProt Q8IWV7)	-0.151
TRRAP C3758 (UniProt Q9Y4A5)	-0.295
TRRAP C2241 (UniProt Q9Y4A5)	-0.543
UBE3B C75 (UniProt Q7Z3V4)	0.321
UBE2O C1288	-0.289
TSFM C71 (UniProt P43897)	-0.181
UBR4 C3279 (UniProt Q5T4S7)	-0.115
TTF2 C1118 (UniProt Q9UNY4)	0.153
TSNAX C257 (UniProt Q99598)	0.0652
TRRAP C1408 (UniProt Q9Y4A5)	-0.254

Target	log2 mean competition ratio
TUT7 C343 (UniProt Q5VYS8)	0.106
TROAP C647 (UniProt Q12815)	0.213
UBA1 C179 (UniProt P22314)	-0.119
UBR4 C3414 (UniProt Q5T4S7)	-0.113
TXNDC11 C815 (UniProt Q6PKC3)	-0.0321
UBN2 C614 (UniProt Q6ZU65)	0.279
TTC21B C187 (UniProt Q7Z4L5)	0.257
UBN1 C548 (UniProt Q9NPG3)	-0.162
U2AF1 C163 (UniProt Q01081)	0.359
TXNDC9 C135 (UniProt O14530)	-0.114
TRRAP C3098 (UniProt Q9Y4A5)	-0.0704
UBR2 C19 (UniProt Q8IWV8)	0.00709
UBAP2 C104	0.299
UBR4 C3392 (UniProt Q5T4S7)	-0.0585
TUBB4B C303 (UniProt P68371)	-0.394
TTMP C119 (UniProt Q5BVD1)	0.105
TXLNG C101 (UniProt Q9NUQ3)	-0.119
UBE4B C829 (UniProt O95155)	-0.358
UBE4B C113 (UniProt O95155)	-0.0861

compound: ClCC(=O)N[C@H]1CCCc2ccccc12; assay: as above; conditions: 50 µM; treatment time: 4 h; cell line lysate: HEK293T
Description: as §1

Target	log2 mean competition ratio
TUT4 C64 (UniProt Q5TAX3)	0.0545
UBR4 C2554 (UniProt Q5T4S7)	0.0495
TTC37 C305 (UniProt Q6PGP7)	0.285
TRRAP C420 (UniProt Q9Y4A5)	0.94
TUT7 C775 (UniProt Q5VYS8)	-0.0394
TTC31 C197	-0.677
TUBGCP2 C737 (UniProt Q9BSJ2)	-0.345
TTC38 C53 (UniProt Q5R3I4)	-0.105
TRMT2A C365 (UniProt Q8IZ69)	0.211
UBR1 C993 (UniProt Q8IWV7)	-0.168
TRRAP C3758 (UniProt Q9Y4A5)	0.00816
TRRAP C2241 (UniProt Q9Y4A5)	0.184
UBE3B C75 (UniProt Q7Z3V4)	-0.12
UBE2O C1288	0.0539
TSFM C71 (UniProt P43897)	-0.16
UBR4 C3279 (UniProt Q5T4S7)	0.0464
TTF2 C1118 (UniProt Q9UNY4)	-0.492
TSNAX C257 (UniProt Q99598)	0.0737
TRRAP C1408 (UniProt Q9Y4A5)	0.483

Target	log2 mean competition ratio
TUT7 C343 (UniProt Q5VYS8)	0.424
TROAP C647 (UniProt Q12815)	-0.223
UBA1 C179 (UniProt P22314)	-0.128
UBR4 C3414 (UniProt Q5T4S7)	-0.0952
TXNDC11 C815 (UniProt Q6PKC3)	0.0782
UBN2 C614 (UniProt Q6ZU65)	-0.0222
TTC21B C187 (UniProt Q7Z4L5)	0.292
UBN1 C548 (UniProt Q9NPG3)	-0.138
U2AF1 C163 (UniProt Q01081)	0.194
TXNDC9 C135 (UniProt O14530)	-0.00895
TRRAP C3098 (UniProt Q9Y4A5)	-0.176
UBR2 C19 (UniProt Q8IWV8)	-0.68
UBAP2 C104	0.231
UBR4 C3392 (UniProt Q5T4S7)	-0.0996
TUBB4B C303 (UniProt P68371)	0.408
TTMP C119 (UniProt Q5BVD1)	-0.213
TXLNG C101 (UniProt Q9NUQ3)	0.0851
UBE4B C829 (UniProt O95155)	-0.228
UBE4B C113 (UniProt O95155)	-0.263
